# Data: ChEMBL document CHEMBL2021913, “Synthesis and biological evaluation of some novel thiazole substituted benzotriazole derivatives” (2012)
# Experiments:
# Aspergillus niger = experiment: Antimicrobial activity against Aspergillus niger 545 at 128 ug/disc at 37 degC after 24 to 72 hrs by agar-well diffusion assay; format: functional
# In short: (§1)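 Potato dextrose agar base plates overlaid with seeded agar cooled to 40 °C and inoculated with spores from 10-day cultures, final 1 × 10⁶ spores/mL. Compounds dissolved in DMSO at 128 µg/mL and applied on 6 mm filter-paper discs placed on chilled seeded medium. Nystatin positive control, DMSO negative control. Incubation 24–72 h at 37 °C. Inhibition zone diameter read by vernier caliper.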
# Candida albicans = experiment: Antimicrobial activity against Candida albicans 3471 at 128 ug/disc at 37 degC after 24 to 72 hrs by agar-well diffusion assay; format: functional; in short: as §1
sequence,measurement,setting,value
NYSTATIN,inhibition zone (IZ),Aspergillus niger,20.3 mm
same,inhibition zone (IZ),Candida albicans,22 mm
